The supplement of paper PMC7661543
Differences between knockout arms are mostly noise.

Columns and labels:
BT-20 = assay: relative cell number vs DMSO control (72 h) (% of DMSO); higher = less growth inhibition (more cells)
Experimental: (§1)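 QMAP-Seq: a pool of 5 breast cancer cell lines (ZR-75-1, SKBR3, HCC-38, MDA-MB-231, BT-20), each carrying 12 doxycycline-inducible Cas9 sgRNA perturbations (11 knockouts plus non-targeting sgNT), was treated with compounds for 72 h at four 10-fold doses (10 nM-10 uM or 1 nM-1 uM range). Barcodes were amplified and sequenced, and cell number was interpolated from 293T spike-in standard curves. The result is expressed as % of the median of DMSO wells. Two biological replicates.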

HCC-38 = assay: as above
Experimental: as §1

Cc1cc(C2CCCCC2)n(O)c(=O)c1 [Ciclopirox]
relative cell number
Conditions | BT-20 | HCC-38
sgRNA knockout: sgATF3, 10 nM | 92.1 | 82.9
sgRNA knockout: sgATF3, 100 nM | 81.7 | 104
sgRNA knockout: sgATF3, 1000 nM | 61.4 | 71.5
sgRNA knockout: sgATF3, 10000 nM | 23 | 15.6
sgRNA knockout: sgATF4, 10 nM | 97.3 | 77.2
sgRNA knockout: sgATF4, 100 nM | 108 | 104
sgRNA knockout: sgATF4, 1000 nM | 56.1 | 75.8
sgRNA knockout: sgATF4, 10000 nM | 26.3 | 16.5
sgRNA knockout: sgATF6, 10 nM | 106 | 91.6
sgRNA knockout: sgATF6, 100 nM | 94.2 | 96.9
sgRNA knockout: sgATF6, 1000 nM | 64.3 | 77.9
sgRNA knockout: sgATF6, 10000 nM | 27 | 15.1
sgRNA knockout: sgATG7, 10 nM | 99.8 | 85.3
sgRNA knockout: sgATG7, 100 nM | 92.6 | 97.97
sgRNA knockout: sgATG7, 1000 nM | 55.1 | 73.5
sgRNA knockout: sgATG7, 10000 nM | 27.2 | 12.3
sgRNA knockout: sgERN1, 10 nM | 82.4 | 84.2
sgRNA knockout: sgERN1, 100 nM | 89.3 | 103
sgRNA knockout: sgERN1, 1000 nM | 68.1 | 74.7
sgRNA knockout: sgERN1, 10000 nM | 25.8 | 18.3
sgRNA knockout: sgHSF1, 10 nM | 86.9 | 102
sgRNA knockout: sgHSF1, 100 nM | 105 | 101
sgRNA knockout: sgHSF1, 1000 nM | 56.2 | 67.1
sgRNA knockout: sgHSF1, 10000 nM | 32.2 | 16.3
sgRNA knockout: sgHSF2, 10 nM | 79.9 | 91.4
sgRNA knockout: sgHSF2, 100 nM | 102 | 97.6
sgRNA knockout: sgHSF2, 1000 nM | 52.9 | 71.8
sgRNA knockout: sgHSF2, 10000 nM | 21.6 | 16.6
sgRNA knockout: sgKEAP1, 10 nM | 90.6 | 103
sgRNA knockout: sgKEAP1, 100 nM | 90.7 | 98.7
sgRNA knockout: sgKEAP1, 1000 nM | 59 | 54.6
sgRNA knockout: sgKEAP1, 10000 nM | 26.93 | 11.1
sgRNA knockout: sgNFE2L2, 10 nM | 94.4 | 73.6
sgRNA knockout: sgNFE2L2, 100 nM | 85.7 | 98.7
sgRNA knockout: sgNFE2L2, 1000 nM | 62.6 | 70.3
sgRNA knockout: sgNFE2L2, 10000 nM | 27.5 | 16.2
sgRNA knockout: sgSLC35F2, 10 nM | 95.5 | 82.1
sgRNA knockout: sgSLC35F2, 100 nM | 97.2 | 106
sgRNA knockout: sgSLC35F2, 1000 nM | 45.8 | 78.2
sgRNA knockout: sgSLC35F2, 10000 nM | 33.8 | 16.9
sgRNA knockout: sgXBP1, 10 nM | 90 | 81.6
sgRNA knockout: sgXBP1, 100 nM | 108.9 | 108
sgRNA knockout: sgXBP1, 1000 nM | 65.2 | 75.8
sgRNA knockout: sgXBP1, 10000 nM | 25.8 | 13.6

COc1cc([C@@H]2c3cc4c(cc3[C@@H](O[C@@H]3O[C@@H]5CO[C@@H](c6cccs6)O[C@H]5[C@H](O)[C@H]3O)[C@H]3COC(=O)[C@H]23)OCO4)cc(OC)c1O [Teniposide]
relative cell number
Conditions | BT-20 | HCC-38
sgRNA knockout: sgATF3, 10 nM | 99.4 | 78.1
sgRNA knockout: sgATF3, 100 nM | 62.6 | 42.2
sgRNA knockout: sgATF3, 1000 nM | 36.9 | 23.4
sgRNA knockout: sgATF3, 10000 nM | 19.9 | 15.4
sgRNA knockout: sgATF4, 10 nM | 105 | 78.6
sgRNA knockout: sgATF4, 100 nM | 63.8 | 44
sgRNA knockout: sgATF4, 1000 nM | 44.4 | 24.6
sgRNA knockout: sgATF4, 10000 nM | 27.4 | 12.7
sgRNA knockout: sgATF6, 10 nM | 95.4 | 90.2
sgRNA knockout: sgATF6, 100 nM | 52.3 | 55
sgRNA knockout: sgATF6, 1000 nM | 45 | 25.1
sgRNA knockout: sgATF6, 10000 nM | 25.9 | 12.6
sgRNA knockout: sgATG7, 10 nM | 106 | 85.2
sgRNA knockout: sgATG7, 100 nM | 66.2 | 47.9
sgRNA knockout: sgATG7, 1000 nM | 47.1 | 26
sgRNA knockout: sgATG7, 10000 nM | 22.5 | 16.5
sgRNA knockout: sgERN1, 10 nM | 97.3 | 95.4
sgRNA knockout: sgERN1, 100 nM | 67.4 | 49.7
sgRNA knockout: sgERN1, 1000 nM | 48.7 | 26.4
sgRNA knockout: sgERN1, 10000 nM | 24.9 | 15.5
sgRNA knockout: sgHSF1, 10 nM | 88.2 | 86
sgRNA knockout: sgHSF1, 100 nM | 53.5 | 32.7
sgRNA knockout: sgHSF1, 1000 nM | 46.9 | 35.1
sgRNA knockout: sgHSF1, 10000 nM | 25.9 | 16.3
sgRNA knockout: sgHSF2, 10 nM | 95.8 | 84.6
sgRNA knockout: sgHSF2, 100 nM | 67 | 48.7
sgRNA knockout: sgHSF2, 1000 nM | 53.2 | 25.3
sgRNA knockout: sgHSF2, 10000 nM | 22.9 | 15.2
sgRNA knockout: sgKEAP1, 10 nM | 89.4 | 102
sgRNA knockout: sgKEAP1, 100 nM | 64.79 | 58.7
sgRNA knockout: sgKEAP1, 1000 nM | 49 | 29
sgRNA knockout: sgKEAP1, 10000 nM | 24.1 | 19.5
sgRNA knockout: sgNFE2L2, 10 nM | 106 | 76.3
sgRNA knockout: sgNFE2L2, 100 nM | 44.4 | 45.4
sgRNA knockout: sgNFE2L2, 1000 nM | 48.3 | 22.7
sgRNA knockout: sgNFE2L2, 10000 nM | 29.3 | 10.5
sgRNA knockout: sgSLC35F2, 10 nM | 105 | 84.7
sgRNA knockout: sgSLC35F2, 100 nM | 51.9 | 48.36
sgRNA knockout: sgSLC35F2, 1000 nM | 48.9 | 24.9
sgRNA knockout: sgSLC35F2, 10000 nM | 25.6 | 12.1
sgRNA knockout: sgXBP1, 10 nM | 100 | 81
sgRNA knockout: sgXBP1, 100 nM | 59.3 | 45.8
sgRNA knockout: sgXBP1, 1000 nM | 51.7 | 23.6
sgRNA knockout: sgXBP1, 10000 nM | 26.4 | 14.2

CS(=O)(=O)c1cccc(CNc2nc(Nc3ccc4c(c3)CCC(=O)N4)ncc2C(F)(F)F)c1
relative cell number
Conditions | BT-20 | HCC-38
sgRNA knockout: sgATF3, 10 nM | 104 | 105
sgRNA knockout: sgATF3, 100 nM | 129 | 109
sgRNA knockout: sgATF3, 1000 nM | 94.5 | 91
sgRNA knockout: sgATF3, 10000 nM | 58.9 | 54.11
sgRNA knockout: sgATF4, 10 nM | 101 | 102
sgRNA knockout: sgATF4, 100 nM | 137 | 114
sgRNA knockout: sgATF4, 1000 nM | 110 | 89.6
sgRNA knockout: sgATF4, 10000 nM | 61.5 | 48.9
sgRNA knockout: sgATF6, 10 nM | 96.3 | 103
sgRNA knockout: sgATF6, 100 nM | 107.02 | 143.1
sgRNA knockout: sgATF6, 1000 nM | 97.4 | 114
sgRNA knockout: sgATF6, 10000 nM | 56.6 | 63.8
sgRNA knockout: sgATG7, 10 nM | 111 | 105
sgRNA knockout: sgATG7, 100 nM | 124 | 112
sgRNA knockout: sgATG7, 1000 nM | 96.4 | 92.7
sgRNA knockout: sgATG7, 10000 nM | 59.9 | 52
sgRNA knockout: sgERN1, 10 nM | 96.5 | 105
sgRNA knockout: sgERN1, 100 nM | 125 | 118
sgRNA knockout: sgERN1, 1000 nM | 109 | 93.2
sgRNA knockout: sgERN1, 10000 nM | 65.7 | 48.29
sgRNA knockout: sgHSF1, 10 nM | 89.4 | 106
sgRNA knockout: sgHSF1, 100 nM | 115 | 153
sgRNA knockout: sgHSF1, 1000 nM | 98.5 | 115
sgRNA knockout: sgHSF1, 10000 nM | 64.2 | 57.1
sgRNA knockout: sgHSF2, 10 nM | 105 | 114
sgRNA knockout: sgHSF2, 100 nM | 115.8 | 127
sgRNA knockout: sgHSF2, 1000 nM | 109 | 96.6
sgRNA knockout: sgHSF2, 10000 nM | 76.4 | 54.2
sgRNA knockout: sgKEAP1, 10 nM | 98.8 | 140
sgRNA knockout: sgKEAP1, 100 nM | 114 | 152
sgRNA knockout: sgKEAP1, 1000 nM | 95.5 | 123
sgRNA knockout: sgKEAP1, 10000 nM | 68 | 67
sgRNA knockout: sgNFE2L2, 10 nM | 127 | 102
sgRNA knockout: sgNFE2L2, 100 nM | 142 | 110
sgRNA knockout: sgNFE2L2, 1000 nM | 115 | 81.9
sgRNA knockout: sgNFE2L2, 10000 nM | 63.7 | 48.5
sgRNA knockout: sgSLC35F2, 10 nM | 107 | 107
sgRNA knockout: sgSLC35F2, 100 nM | 126.5 | 108
sgRNA knockout: sgSLC35F2, 1000 nM | 108 | 87.6
sgRNA knockout: sgSLC35F2, 10000 nM | 68.7 | 52.4
sgRNA knockout: sgXBP1, 10 nM | 99.8 | 104
sgRNA knockout: sgXBP1, 100 nM | 119 | 114
sgRNA knockout: sgXBP1, 1000 nM | 101 | 93.9
sgRNA knockout: sgXBP1, 10000 nM | 60.29 | 54.6
